No constants are given. Whether binding was seen depends on the method and setting. In cells and extracts the contact can be indirect. These calls come from enrichment with a bait or labelling near it, and not all partners need be listed. Sequences can lack the tags named with a protein.

Sequences of proteins named here, by UniProt entry; tags and fusion partners are left off.
UniProt Q9QUR7: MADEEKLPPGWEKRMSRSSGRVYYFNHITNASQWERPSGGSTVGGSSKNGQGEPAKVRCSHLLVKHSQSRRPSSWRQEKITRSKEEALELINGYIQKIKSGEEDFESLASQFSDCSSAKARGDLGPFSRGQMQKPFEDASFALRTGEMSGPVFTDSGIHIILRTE

The experiment addresses T1, Flag-tagged Gbp2 (UniProt Q9Z0E6).
T1 sequence: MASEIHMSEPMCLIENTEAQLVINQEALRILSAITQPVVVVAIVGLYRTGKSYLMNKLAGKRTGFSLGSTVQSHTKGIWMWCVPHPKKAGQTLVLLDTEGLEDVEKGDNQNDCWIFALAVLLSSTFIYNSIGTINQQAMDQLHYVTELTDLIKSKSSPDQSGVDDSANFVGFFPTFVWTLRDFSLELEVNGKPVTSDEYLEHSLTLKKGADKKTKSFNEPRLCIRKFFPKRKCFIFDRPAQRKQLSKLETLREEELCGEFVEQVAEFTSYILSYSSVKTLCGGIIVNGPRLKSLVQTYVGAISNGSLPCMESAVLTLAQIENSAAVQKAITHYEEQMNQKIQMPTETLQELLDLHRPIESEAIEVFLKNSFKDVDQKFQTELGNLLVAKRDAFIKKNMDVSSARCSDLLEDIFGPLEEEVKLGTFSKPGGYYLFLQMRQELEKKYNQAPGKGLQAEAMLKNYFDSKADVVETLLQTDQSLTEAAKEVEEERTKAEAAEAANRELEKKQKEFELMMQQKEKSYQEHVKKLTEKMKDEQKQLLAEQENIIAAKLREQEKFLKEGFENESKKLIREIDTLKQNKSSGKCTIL
Nature of the experiment: affinity purification with mass spectrometry; co-immunoprecipitation of Gbp2 followed by proteomic profiling; proteins ranked by peptide-spectrum matches.

For Pin1 (from UniProt Q9QUR7 1-165), the binding result is on record as “binds”.

For the origin of these results see article PMC12005807.
